Screen size: about 52,000 sequences; about 210 (0.4%) were called active.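 Rule for the calls: active = gene whose silencing raises cell survival under the drug, median off-target-corrected z-score across its silencing RNAs 2 or more; inactive = the rest.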 This is one part of the list.

This assay in a line: Resistance to Poly (ADP-Ribose) Polymerase inhibitor: Gene Identification via Genome-wide siRNA Screen. The conditions noted are these: mouse BRCA2 R2336H ES cells, olaparib, CellTiter-Glo viability; hits give high values. The essentials:
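Mouse BRCA2 R2336H ES cells were reverse-transfected with siRNA (20 nM final), treated at 48 h with 500 nM olaparib, and read by CellTiter-Glo after 72 h. Scores: MAD-based z per siRNA, median per gene, seed off-target correction.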
On the technique in general: ATP-based viability assays read luminescence as a measure of living cells.
For the sequence GCACUCUCAGCAUUGGAUUTT against Sec22l1, the z-score is inactive: -1.44.

For GCUCCAGGCAUUGAGAAUGTT against Hcfc1r1, the z-score was inactive: 0.185.

Take GGCAUAGGAAAAACAUGAATT against C1qtnf1: the z-score was inactive: 0.846.

With “GGAAAAAUUUGAAGCAGGATT against 1810063B05Rik”, the z-score was inactive: -0.374.

Take GCUGCAUAGAUUCCAUAAUTT against Lxn: the z-score was inactive: -1.11.

In the case of GCAGGGUGUCUACUUGUUGTT against Gata4, the z-score is inactive: -0.384.

Consider “GUCUUUAACUCUCCUAUGUTT against 2310034C09Rik”, for which the z-score is inactive: -0.0533.

Turning to “GCAAGUGAGACCUACUGUATT against 6820443O06Rik”, the z-score was inactive: -2.01.

As to CCACCAUCGGUUGUUAGUUTT against Actg, the z-score is inactive: 0.898.

With “GGUUUCCAGUAAGAUCUUATT against A130070M06”, the z-score is inactive: -0.825.

For GGAGCACUUGAUUAAACAUTT against Syt10, the z-score is inactive: 0.37.

Consider GGUUUCUAUUGUGUUCAUUTT against Birc2, for which the z-score was inactive: -0.135.

With GGAAGUUUAGUCUCAAAACTT against Csnk1d, the z-score is inactive: -0.0755.

Regarding GGCUCAAGAAACUGGAGCUTT against Usp21, the z-score is inactive: -0.189.

As for “CGCCAUGCUUAGAUUUAAATT against 1600013P15Rik”, the z-score is inactive: -0.161.

For GGGCUCAACAGUUUCAACCTT against Mrpl4, the z-score was inactive: 0.983.

Turning to “GGGCAUGGCCUUUACACUUTT against 1700020C08Rik”, the z-score was inactive: 1.55.

For the sequence “GGGCUGACUGUGAAGUAUGTT against 9330140G23”, the z-score was inactive: -0.26.

“GGUGACCGUUGUAACUGUGTT against 0610008A10Rik”: the z-score is inactive: 0.16.

Turning to “CCUCUGAACUCCAACCGAATT against 1700023E05Rik”, the z-score is inactive: 3.66.

Consider “GGCAGAAGAGCAGUCUGAATT against D17Ertd488e”, for which the z-score is inactive: -2.24.

As to “CCAGACUACGGUGCUAAGATT against 4930525K10Rik”, the z-score is inactive: -0.597.

As to GGCAACUCUUAAAAAACCATT against Igfbpl1, the z-score is inactive: 2.28.

For the sequence “GGUUUACUGUGAAAAAAGATT against 4932411A10Rik”, the z-score was inactive: -0.598.

As to GGUGCUCUUUUCAGAAAAATT against Ptpla, the z-score was inactive: 3.65.

For the sequence GCUAACAUGUUGUCUUAAATT against Tm4sf12, the z-score is inactive: -0.254.

Take GGUACAGUAUGAUACUCACTT against Olfr678: the z-score was inactive: -0.458.

In the case of GGACAAAGUACAUUUAUGGTT against Il7r, the z-score is inactive: 0.756.

On to GGAAAUGUGGAGAGAAAAUTT against P2ry4, for which the z-score was inactive: -0.358.

Take CCAUUGCAGCAUACUGUCCTT against Serpina1b: the z-score is inactive: -1.23.

For the sequence CGUGGCUCAAAUUUUCAACTT against Cab39, the z-score was inactive: -0.381.

As for GGAAAAGAAAGCAAAGAGATT against Dach1, the z-score was inactive: -0.059.

For GGAAAAACAAGAAAGGGAATT against Cdyl, the z-score is inactive: -0.297.

Turning to “GCUGGAAGAUCUGCUCAACTT against 6430537H07Rik”, the z-score is inactive: 0.724.

As to GGAAGGUAGUGCUAAUCAGTT against Neil2, the z-score was inactive: 0.0179.

On to GGAGUCAGUGCACAUAAUGTT against Usp52, for which the z-score was inactive: -2.21.

GGUACUAAAUCAAACAUCCTT against Angpt1: the z-score was inactive: 1.73.

GGUUCAGACACCACUUCAGTT against Bgn: the z-score is inactive: -0.627.

GGACAUCCCAGACAAUUUUTT against Lxn: the z-score is inactive: -2.05.

Take GCCCAGCAUGGAUAGAUUATT against C79407: the z-score was inactive: 0.0059.

Take “GGCUUUGCUAUCAACUCGCTT against 4732472I07Rik”: the z-score is inactive: 0.344.

With GCCUUUACUGGAUUCAUUGTT against Acadm, the z-score was inactive: -1.37.

For the sequence GGAAUGCAAAAAACUCUGGTT against Gzmg, the z-score is inactive: -0.54.

Regarding CGUUCUCUUGAAAUAAGCCTT against Pogk, the z-score was inactive: 0.191.

As to CCGAGAUGAUUAUUCAUAATT against Slc17a6, the z-score was inactive: -0.358.

For the sequence GCUUCCUCGUAUCUACACCTT against Phb, the z-score is inactive: -2.61.

Consider “GGUGAACACAACCAAACCATT against D15Ertd366e”, for which the z-score was inactive: -0.06.

As for GGAACUGACUGCCUAUUCCTT against Gnb3, the z-score is inactive: -0.645.

Regarding “CCAGCAAUAGUUCAGCAGATT against 2310043N13Rik”, the z-score was inactive: -0.766.

GGUGAUUUUAAUAUGCCUGTT against Cox15: the z-score is inactive: 0.119.

As for AAUAAAAGUGUCCUCUGUGTT against Olfr242, the z-score was inactive: -1.61.

For GGAUCAAUGCUAAGCUCCATT against Olfr1176, the z-score is inactive: -2.35.

On to GGAUAUGCUCUCUUGGCUCTT against Ctsk, for which the z-score is inactive: -0.645.

As to GGGCCAGGUAUUCAUGGAATT against Ciapin1, the z-score is inactive: 1.97.

Consider “GCUCAGAAAUUAAUCAUCATT against C330011M18Rik”, for which the z-score was inactive: 0.807.

On to GGUCGGUUGCUUUAGUGAATT against Magee2, for which the z-score is inactive: 0.303.

For the sequence “AUGACUAGAUACUCAGAUGTT against 4930451E10Rik”, the z-score is inactive: 1.77.

Regarding GGAGGAUGCAGCUAACAAUTT against Tuba8, the z-score is inactive: -1.76.

Turning to GCCGGAUACUCAAAUAACGTT against Svs5, the z-score was inactive: -0.771.

With “GGAAGGAAACAGAAAAGUATT against 5830483C08Rik”, the z-score was inactive: 0.149.

For the sequence GGCAAAGUACUACGUGCAGTT against Sh3bp5, the z-score is inactive: 0.298.

Turning to GGCUAAAGCGCAAAAGGGCTT against Nav1, the z-score was inactive: -0.179.

Turning to GCUCUUUCUUCAUUCCACATT against Krtap5-5, the z-score was inactive: -0.209.

Regarding GCAAAUCAAACGAUCAGCUTT against Cxxc1, the z-score is inactive: -2.18.

In the case of “GGAUUUUCACAUUGCAUCUTT against 4921520P21Rik”, the z-score is inactive: 0.236.

Take “GCACAAUUUUAUAACUCGGTT against D430025H09Rik”: the z-score is inactive: -1.13.

With GCCUUACGUGUCAGACUAUTT against Theg, the z-score is inactive: -2.57.

For the sequence GGUAGAGUACCCUGUCAUGTT against Mgst3, the z-score is inactive: -1.5.

In the case of GGGUCAGUCAGGAAUGUUGTT against Mad2l1, the z-score is inactive: 0.282.

For CCCUAUGACAAGAAAAAGCTT against Rpl13a, the z-score was inactive: -3.5.

For the sequence GGUGAAAAACUAUAGCAACTT against Mtx2, the z-score was inactive: -0.024.

Turning to GGGAUGCCGAAGACAAUAGTT against V1rh21, the z-score is inactive: 0.281.

As to GGCUAAAAAAGACUUGGAATT against Pms1, the z-score was inactive: 0.205.

GGAUGUUAAAGCCAUAUACTT against Msh6: the z-score was inactive: 0.0717.

As to GGCACAAACUAGAUGCAGATT against MGC54896, the z-score is inactive: -0.473.

On to GCCGUAACUGCUCUGAAUGTT against Rnf34, for which the z-score is inactive: -0.0868.

For AUCGAAACCCUGGAGUCGUTT against Nrp, the z-score was inactive: -0.136.

On to “GGUUUAACUGUAGCAUAAGTT against E430028B21Rik”, for which the z-score was inactive: 0.156.

On to GGGAUAACUCACACCACGGTT against Bscl2, for which the z-score is inactive: 2.49.

GGAUGGCUUUCAUAUCCGATT against Rpl10: the z-score was inactive: -2.98.

As for GGAUUUUUCUUUUGAGCGATT against Figf, the z-score is inactive: -0.866.

For GGCACACCUUUUGUUAGUGTT against Ywhag, the z-score is inactive: -1.27.

As to AAUACCUAGACUGACAUGUTT against Trp53rk, the z-score was inactive: 0.282.

For GGGAUUGUUCGAGUUGUCUTT against Phtf2, the z-score was inactive: 0.603.

As to GGCAAAAUUGGCAAAGAAUTT against Tollip, the z-score is inactive: -0.137.

GCGAGGAGAGUGUGUUUUCTT against Bop1: the z-score was inactive: -1.81.

In the case of GGUGUUAUCAGAAUUCAGATT against Cars, the z-score is inactive: -1.21.

Consider GGGCUCGUCAUGAUAUUUGTT against Rnf41, for which the z-score was inactive: -0.0776.

With GGAACCUUCUUCCUGAUGATT against Oprm1, the z-score is inactive: -0.575.

For GGAACACAGUUCUCUGAGATT against Ighmbp2, the z-score is inactive: -0.736.

In the case of GGGACUGUGGAUGGAAUGUTT against Cldn14, the z-score is inactive: -1.03.

On to GGGAGCUUCCAUGUUGACATT against Uqcr, for which the z-score is inactive: -1.78.

In the case of “GGGUUAUGCUGUCUUGGUGTT against B230114J08Rik”, the z-score was inactive: -0.624.

Consider GGCUGCUCGAAUCAGUCAUTT against Slc27a3, for which the z-score was inactive: 0.0555.

As to GGGCAGAACGCAUCUUGCATT against Gpt1, the z-score is inactive: 2.43.

With GCUAUUGAUGAACCUAACATT against Trpc5, the z-score is inactive: 0.0413.

Turning to GGGCUCUUGUGUUAAGGCATT against Krt1-c29, the z-score was inactive: 1.06.

As to GAUUCCACGCCAAUUCAUCTT against Ccl3, the z-score is inactive: -1.53.

Regarding “GCUAUGUGUGGAACACCAUTT against C330017I15Rik”, the z-score is inactive: 1.24.

For GGAAAUCUCACGUAAUUAATT against Anxa9, the z-score was inactive: -1.33.

With GGCGAAGGAAGAGUGUGAATT against Sox8, the z-score is inactive: -1.58.

For the sequence CGCUUAAAGACCUCAUCUCTT against Ap1b1, the z-score is inactive: 0.882.

CCAAGACCGGUUAAAAGAGTT against Myo1e: the z-score is inactive: -0.337.

On to GGGAGUCCUGAAGGACUACTT against Lgmn, for which the z-score was inactive: -0.124.

Source of the values: PubChem BioAssay AID1347423 (Functional Genomics Laboratory (NCATS/FGL), 2020).
